The target of this test is CHD1^WT-Venus (chromodomain helicase DNA-binding 1, wild type) (human) (UniProt O14646). The test can be described thus: proximity ligation; Duolink PLA in fixed, permeabilised CHD1KO mCAT HeLa cells with exogenous CHD1-Venus; anti-GFP and anti-SUZ12 primary antibodies; nuclear signals counted in 30 cells, two independent experiments.

By UniProt entry, the sequences of proteins in these tests, tags left out.
UniProt O14646: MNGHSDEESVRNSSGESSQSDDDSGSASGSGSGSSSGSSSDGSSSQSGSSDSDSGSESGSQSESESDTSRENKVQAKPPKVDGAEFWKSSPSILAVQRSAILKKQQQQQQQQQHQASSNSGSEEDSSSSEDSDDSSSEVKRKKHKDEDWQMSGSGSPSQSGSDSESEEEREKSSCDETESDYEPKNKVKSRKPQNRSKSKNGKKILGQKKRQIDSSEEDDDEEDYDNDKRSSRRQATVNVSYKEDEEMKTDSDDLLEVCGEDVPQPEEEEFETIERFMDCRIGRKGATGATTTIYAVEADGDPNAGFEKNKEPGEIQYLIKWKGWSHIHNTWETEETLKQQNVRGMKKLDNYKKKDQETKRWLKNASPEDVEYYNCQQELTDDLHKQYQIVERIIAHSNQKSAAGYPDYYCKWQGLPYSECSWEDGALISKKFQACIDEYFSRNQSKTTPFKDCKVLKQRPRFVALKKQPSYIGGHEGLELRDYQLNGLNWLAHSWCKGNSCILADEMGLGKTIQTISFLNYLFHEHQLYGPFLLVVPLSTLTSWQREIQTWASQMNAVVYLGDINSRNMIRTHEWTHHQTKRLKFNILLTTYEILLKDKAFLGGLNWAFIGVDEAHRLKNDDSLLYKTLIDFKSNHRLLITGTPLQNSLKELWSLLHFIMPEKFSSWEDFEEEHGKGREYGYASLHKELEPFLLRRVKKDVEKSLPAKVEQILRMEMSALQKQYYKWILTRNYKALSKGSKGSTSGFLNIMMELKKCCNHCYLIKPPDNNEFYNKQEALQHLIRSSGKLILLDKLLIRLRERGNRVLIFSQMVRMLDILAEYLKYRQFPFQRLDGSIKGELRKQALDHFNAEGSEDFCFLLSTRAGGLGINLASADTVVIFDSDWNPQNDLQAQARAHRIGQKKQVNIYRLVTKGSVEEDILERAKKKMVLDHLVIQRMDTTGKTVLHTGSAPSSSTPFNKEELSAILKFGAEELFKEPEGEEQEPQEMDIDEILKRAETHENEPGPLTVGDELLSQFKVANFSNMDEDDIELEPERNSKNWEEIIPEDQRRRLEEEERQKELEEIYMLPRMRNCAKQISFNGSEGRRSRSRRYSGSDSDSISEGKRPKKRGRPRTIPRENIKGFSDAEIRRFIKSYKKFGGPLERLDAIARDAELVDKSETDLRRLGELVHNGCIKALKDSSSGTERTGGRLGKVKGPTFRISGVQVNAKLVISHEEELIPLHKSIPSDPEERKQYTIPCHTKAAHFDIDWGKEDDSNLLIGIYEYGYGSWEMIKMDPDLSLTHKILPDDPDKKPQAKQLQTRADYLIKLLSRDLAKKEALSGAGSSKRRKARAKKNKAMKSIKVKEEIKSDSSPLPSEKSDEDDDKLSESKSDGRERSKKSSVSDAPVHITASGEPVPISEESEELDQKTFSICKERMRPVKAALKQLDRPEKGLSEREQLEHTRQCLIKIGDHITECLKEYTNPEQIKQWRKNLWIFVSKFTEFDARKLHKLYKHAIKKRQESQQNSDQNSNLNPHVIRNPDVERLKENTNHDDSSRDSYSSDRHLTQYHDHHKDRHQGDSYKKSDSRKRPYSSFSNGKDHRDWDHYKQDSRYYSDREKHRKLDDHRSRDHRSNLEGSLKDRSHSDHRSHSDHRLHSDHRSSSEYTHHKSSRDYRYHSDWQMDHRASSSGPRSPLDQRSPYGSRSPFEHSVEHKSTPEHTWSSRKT
UniProt Q15022: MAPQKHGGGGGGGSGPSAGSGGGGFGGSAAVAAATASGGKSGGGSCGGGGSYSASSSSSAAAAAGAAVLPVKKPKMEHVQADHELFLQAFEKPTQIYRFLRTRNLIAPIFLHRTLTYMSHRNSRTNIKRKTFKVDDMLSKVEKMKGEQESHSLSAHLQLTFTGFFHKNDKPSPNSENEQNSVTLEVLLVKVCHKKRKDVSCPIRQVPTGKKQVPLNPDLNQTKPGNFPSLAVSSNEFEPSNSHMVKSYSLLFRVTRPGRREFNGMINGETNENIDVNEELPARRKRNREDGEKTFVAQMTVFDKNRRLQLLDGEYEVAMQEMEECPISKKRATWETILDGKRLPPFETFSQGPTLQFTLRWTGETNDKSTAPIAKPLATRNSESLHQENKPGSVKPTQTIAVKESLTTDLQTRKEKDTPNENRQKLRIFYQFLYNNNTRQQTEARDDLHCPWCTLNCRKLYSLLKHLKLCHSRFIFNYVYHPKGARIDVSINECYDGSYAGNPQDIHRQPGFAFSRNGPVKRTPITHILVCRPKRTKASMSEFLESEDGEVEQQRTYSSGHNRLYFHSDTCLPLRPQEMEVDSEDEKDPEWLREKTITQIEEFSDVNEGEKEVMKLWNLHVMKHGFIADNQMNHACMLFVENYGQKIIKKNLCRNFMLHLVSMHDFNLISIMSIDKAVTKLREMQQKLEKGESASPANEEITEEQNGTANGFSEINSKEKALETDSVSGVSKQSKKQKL

No constants are given. Whether binding was seen depends on the method and setting. Binding seen in cells or lysates may run through a third protein. Some entries that bind do so weakly or less than the wild type.

As to SUZ12 (from UniProt Q15022 1-739), the binding result is “binds”.
